Results are given in words; binding and its absence hold for the method and conditions named. Some entries that bind do so weakly or less than the wild type.

Assay [1] deals with MmPNMA3, bacterially produced (mouse) (UniProt Q8JZW8). Briefly: self-association; size exclusion and electron microscopy of protein produced in E. coli. (In general: In gel filtration, larger molecules generally elute earlier.)
Assay [2] deals with MmPEG10, bacterially produced (mouse) (UniProt Q7TN75). Described as above.

B1: MmPNMA3, bacterially produced (protein, mouse, UniProt Q8JZW8 1-466, looked up)
chain: MPLNLLQDWCRGEHLNTQRSMLILGIPEDCSEDEFEETLHEALKHLGRYRIIGRMFRREENAQAFLVELARDFDYALVPREIEGKGGPWEVVVKPPHSDDEFLNRLNHFLEEERRTVSDMNRVLGTHSNHSPTKTTISADFWVWAQTLGAVMQPLLEQMLYRELRVFSGNTISIPGLLAFDSWLEHTTEMLQMWQVPEVEKRRRLMECLRGPALQVVNVLRANNAAITVKECLEALRQVFGSVDNRKIAQLKFCKAYQEPGEKVSSFVVRLETLLQKALEKNAISRKNVNQTRLKRILGGAILSAKLREKLKMLKQRRRPPGFLALVKLFREEEEEWEATRGSERSCYEGLELGPSPSNIGSEERELFVPAFGSVLEERPYQGSRRRRHRRRGQHRKGGVPRDDSQGTRKQNYDTFCYSCGEDGHIRVHCFNPSNRTLVKQKRQAAMEKGNRSWAWEKSHPKPKTK
For the molecule B1, in assay [1], the binding result is reported as “binds”.

B2: MmPEG10, bacterially produced (protein, mouse, UniProt Q7TN75 1-958, looked up)
chain: MAAAGGSSNCPPPPPPPPPNNNNNNNTPKSPGVPDAEDDDERRHDELPEDINNFDEDMNRQFENMNLLDQVELLAQSYSLLDHLDDFDDDDEDDDFDPEPDQDELPEYSDDDDLELQGAAAAPIPNFFSDDDCLEDLPEKFDGNPDMLGPFMYQCQLFMEKSTRDFSVDRIRVCFVTSMLIGRAARWATAKLQRCTYLMHNYTAFMMELKHVFEDPQRREAAKRKIRRLRQGPGPVVDYSNAFQMIAQDLDWTEPALMDQFQEGLNPDIRAELSRQEAPKTLAALITACIHIERRLARDAAAKPDPSPRALVMPPNSQTDPTEPVGGARMRLSKEEKERRRKMNLCLYCGNGGHFADTCPAKASKNSPPGKLPGPAVGGPSATGPERIRSPPSEASTQHLQVMLQIHMPGRPTLFVRAMIDSGASGNFIDQDFVIQNAIPLRIKDWPVMVEAIDGHPIASGPIILETHHLIVDLGDHREILSFDVTQSPFFPIVLGIRWLSTHDPHITWSTRSIVFNSDYCRLRCRMFAQIPSNLLFTVPQPNLHPYLLHHVHPHVHPHMHQHLHQHLHQFLHPDPHQYPHPDPHYHHHQQADMQHQLQQYLYQYLYYHLYPVMHHHLPPDQHEHLHEYLHQYLHQYLHQFLHHHLHPDLHQYLYQYLHNHMNPDPHHHPHPDPPQDPHHPPHQDPHQHPDPHQDPPHQDPHQDAHQDPHMDPHLHQHQHPQPQPHPQQHPNHPQQPPFFYHMAGFRIYHPVRYYYIQNVYTPVDEHVYPGHRVVDPNIEMIPGAHSLPSGHLYSMSESEMNALRNFVDRNVKDGLMTPTVAPNGAQVLQVKRGWKLQVTYNCRAPQSGTIQNQYLRMSLPNMGDPAHLASYGEFVQVPGYPYPAYVYYTSPHMMTAWYPVGRDVHGRIIVVPVVITWSQNTNRQPPVPQYPPPQPPPPPPPPPPPPPPPPASSCSAA
Turning to B2, the binding result in assay [2] is on record as “binds”.

Source of the values: patent US20250073350A1.
